From patent publication US20240368259A1
No constants are given. Whether binding was seen depends on the method and setting. Some results given as binding are weak or reduced against the parent protein; the word gives no strength.

Target: 1189 SCR1 (human LEFTY1-human Fc fusion protein) (human)
Test: ELISA on plates coated with LEFTY1 SCR (FIG. 26)

binding: binds
B1: anti-LEFTY1 1189 specific mIgG1 antibody clone 1 H11 (antibody, V domains shown)
VH: QSLEESGGDLVKPEGSLTLTCTASGFSFSSSYWICWVRQAPGKGLERIACIYAGSTGTTYYASWAKGRFTISKTSSTTVTLQMTSLTAADTATYFCARGDYNSGWGVNLWGPGTLVTISS
VL: DVVMTQTASSASEPVGGTVTIKCQASESISSNLAWYQQKPGQRPKLLIYSASTLASGVPSRFSGSGSGTEFTLTISDLECADAATYYCQCTDYVNSGAFGGGTEVVVKR
